Strings that start with PEPTIDE1 are HELM notation: dots part the residues, brackets hold end groups and non-standard residues.

This series can be described thus: general procedure: Boc solid-phase peptide synthesis; Boc-Lys(Cl-Z)-O-Resin (0.4 m mole/g, Peninsula Labs.). To be noted: whole synthesis; for isolated yield: calculated from coupling with Asn, scale of the general procedure 1.25 g resin.

For the substance “PEPTIDE1{H.S.D.A.V.F.T.D.N.Y.T.R.L.R.K.Q.L.A.V.K.K.Y.L.N.S.I.L.N.G.K}$$$$V2.0”, the crude mass is 628 mg and the isolated yield is listed as 8.5%.
The like results for “PEPTIDE1{H.S.D.A.V.F.T.D.N.Y.T.R.L.R.K.Q.M.A.V.K.K.Y.L.N.S.I.L.N.G.K}$$$$V2.0” were, in that order, 834 mg and 24.3%.

The record behind these values is US4822774A (Eisai Co., Ltd., priority 1986, dated 1989).
